This test addresses CENP-I (CTF3) (S. cerevisiae) (UniProt Q12748). The test is described as follows: cryo-EM structure; IK^C0N3: CBF1:CCAN^ΔC:C0N3-CENP-A^Nuc:CBF3^Core:scFv, components at 2 μM, scFv 4 μM, BS3 cross-linked; multibody refinement 3.7 to 3.8 Å; both purified.

No constants are given. Whether binding was seen depends on the method and setting. Some entries that bind do so weakly or less than the wild type.

Consider “CBF3^Core complex (Cep3, Ctf13, and Skp1) (from UniProt P40969 1-608; P35203 1-478; P52286 1-194)”, for which the binding entry was “binds”.

These data come from paper PMC10381965.
